Paper doi:10.1101/2025.02.10.637573 (bioRxiv, 2025)
Substitutions are numbered along the chain they refer to. These are yes or no findings as the source states them, for the method shown. Binding seen in cells or lysates may run through a third protein. A result given as binding can be weak or reduced; the word gives no strength.

How the values were obtained:
Assay in all cases: pull-down
[1] = target: T1, Vps74 Loop2 variant (166AAA168) (yeast) (UniProt Q06385)
T1 sequence: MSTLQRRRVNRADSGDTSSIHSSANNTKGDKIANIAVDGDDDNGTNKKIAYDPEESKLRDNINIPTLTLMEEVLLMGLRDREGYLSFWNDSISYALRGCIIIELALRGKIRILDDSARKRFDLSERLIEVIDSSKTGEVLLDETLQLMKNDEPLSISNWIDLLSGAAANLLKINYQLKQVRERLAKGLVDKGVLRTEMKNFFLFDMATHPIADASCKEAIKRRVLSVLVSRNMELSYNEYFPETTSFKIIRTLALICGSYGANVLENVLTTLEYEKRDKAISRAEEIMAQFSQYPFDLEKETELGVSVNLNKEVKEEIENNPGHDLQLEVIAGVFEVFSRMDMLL

[2] = target: T2, Vps74 (bacterially expressed, as used in the in vitro mixing assays) (yeast) (UniProt Q06385)
T2 sequence: T1 sequence with A166E, A167T, A168W

[3] = target: T3, Vps74 Loop1 variant (87AAAA90) (yeast) (UniProt Q06385)
T3 sequence: T1 sequence with F87A, W88A, N89A, D90A, A166E, A167T, A168W

Measured: binding

soluble domain of Sac1 (from UniProt P32368) (domain or fragment)
binds: all assays above
